These results are taken from US12378320B2, “Methods for treating pancreatitis” (Cold Spring Harbor Laboratory, priority 2018, dated 2025).

The test system of this data set is CA19-9 modified proteins. As to the kind of experiment: CA19-9 IP/MS (iTRAQ) of organoid conditioned media after Dox treatment. Also on record: species or system mouse.
The mark [1] stands for this setting: A217 (genetic negative) organoids conditioned media, after 8 hours of treatment, CA19-9 IP with 5B1, relative to 17 0H NS19.
The mark [2] stands for this setting: A217 (genetic negative) organoids conditioned media, after 8 hours of treatment, CA19-9 IP with NS19-9, relative to 17 0H NS19.
[3] abbreviates: A217 (genetic negative) organoids conditioned media, before treatment (0H), CA19-9 IP with NS19-9, relative abundance, reference channel.
The mark [4] stands for this setting: A220 (C;R^LSL;F) organoids conditioned media, before treatment (0H), CA19-9 IP with 5B1, relative to 17 0H NS19.
Setting [5] is: CA19-9 IP/MS relative abundance, A217 (genetic negative) organoid conditioned media, 0H (before treatment), IP with NS19-9, reference channel = 1.
Setting [6] is: CA19-9 IP/MS relative abundance, A217 (genetic negative) organoid conditioned media, after 8 hours, IP with 5B1.
The mark [7] stands for this setting: CA19-9 IP/MS relative abundance, A217 (genetic negative) organoid conditioned media, after 8 hours, IP with NS19-9.
The mark [8] stands for this setting: CA19-9 IP/MS relative abundance, A220 (C;R^LSL;F) organoid conditioned media, 0H (before treatment), IP with 5B1.

B1: P52196 (protein, UniProt P52196 1-297, looked up)
chain: MVHQVLYRALVSTKWLAESIRSGRLGPSLRVLDASWYSPGTRQARKEYQERHVPGASFFDIEECRDTTSPYEMMLPSEAHFGDYVGNLGISNDTHVVVYDGDDLGSFYAPRVWWMFRVFGHRTVSVLNGGFRNWLKEGHPVTSEPSRPEPAVFKATLNLSLLKTYEQVLENLQSKRFQLVDSRAQGRYLGTQPEPDIVGLDSGHIRGSVNMPFMDFLTKDGFEKSPEELRAIFQDKKVDLSQPLIATCRKGVTACHVALAAYLCGKPDVAVYDGSWSEWFRRAPPETRVSQGKSGKA
modifications: full-length
For the molecule B1, the “17 8H 5B1” value under setting [1] turned out to be 4.508. Besides, the “17 8H NS19” value under setting [2] was 0.484. Further, the “17 0H NS19” value under setting [3] was determined as 1. Also, the “20 0H 5B1” value under setting [4] is 3.105.

B2: P12023 (protein, UniProt P12023 1-770, looked up)
chain: MLPSLALLLLAAWTVRALEVPTDGNAGLLAEPQIAMFCGKLNMHMNVQNGKWESDPSGTKTCIGTKEGILQYCQEVYPELQITNVVEANQPVTIQNWCKRGRKQCKTHTHIVIPYRCLVGEFVSDALLVPDKCKFLHQERMDVCETHLHWHTVAKETCSEKSTNLHDYGMLLPCGIDKFRGVEFVCCPLAEESDSVDSADAEEDDSDVWWGGADTDYADGGEDKVVEVAEEEEVADVEEEEADDDEDVEDGDEVEEEAEEPYEEATERTTSTATTTTTTTESVEEVVREVCSEQAETGPCRAMISRWYFDVTEGKCVPFFYGGCGGNRNNFDTEEYCMAVCGSVSTQSLLKTTSEPLPQDPDKLPTTAASTPDAVDKYLETPGDENEHAHFQKAKERLEAKHRERMSQVMREWEEAERQAKNLPKADKKAVIQHFQEKVESLEQEAANERQQLVETHMARVEAMLNDRRRLALENYITALQAVPPRPHHVFNMLKKYVRAEQKDRQHTLKHFEHVRMVDPKKAAQIRSQVMTHLRVIYERMNQSLSLLYNVPAVAEEIQDEVDELLQKEQNYSDDVLANMISEPRISYGNDALMPSLTETKTTVELLPVNGEFSLDDLQPWHPFGVDSVPANTENEVEPVDARPAADRGLTTRPGSGLTNIKTEEISEVKMDAEFGHDSGFEVRHQKLVFFAEDVGSNKGAIIGLMVGGVVIATVIVITLVMLKKKQYTSIHHGVVEVDAAVTPEERHLSKMQQNGYENPTYKFFEQMQN
modifications: full-length
Consider B2, for which the “17 0H NS19” value under setting [5] turned out to be 1. The “17 8H 5B1” value under setting [6] turned out to be 3.393. The “17 8H NS19” value under setting [7] worked out at 1.207. For the same molecule, the “20 0H 5B1” value under setting [8] worked out at 1.115.

B3: P19324 (protein, UniProt P19324 1-417, looked up)
chain: MRSLLLGTLCLLAVALAAEVKKPLEAAAPGTAEKLSSKATTLAERSTGLAFSLYQAMAKDQAVENILLSPLVVASSLGLVSLGGKATTASQAKAVLSAEKLRDEEVHTGLGELLRSLSNSTARNVTWKLGSRLYGPSSVSFADDFVRSSKQHYNCEHSKINFRDKRSALQSINEWASQTTDGKLPEVTKDVERTDGALLVNAMFFKPHWDEKFHHKMVDNRGFMVTRSYTVGVTMMHRTGLYNYYDDEKEKLQMVEMPLAHKLSSLIILMPHHVEPLERLEKLLTKEQLKAWMGKMQKKAVAISLPKGVVEVTHDLQKHLAGLGLTEAIDKNKADLSRMSGKKDLYLASVFHATAFEWDTEGNPFDQDIYGREELRSPKLFYADHPFIFLVRDNQSGSLLFIGRLVRPKGDKMRDEL
modifications: full-length
In the case of B3, the “17 8H 5B1” value under setting [1] was found to be 2.356. Also, the “17 8H NS19” value under setting [2] was 0.505. In addition, the “17 0H NS19” value under setting [3] is given as 1. Also, the “20 0H 5B1” value under setting [4] was determined as 2.045.

B4: P01786 (protein, UniProt P01786 1-117, looked up)
chain: EVKLVESGGGLVQPGGSLRLSCATSGFTFTDYYMSWVRQPPGKALEWLGFIRNKABGYTTEYSAVKGRFTISRBBSZGILYLQMNTLRAQDSATYYCARDITEFAYWGZGTLVTVSS
modifications: full-length
Regarding B4, under setting [5], the “17 0H NS19” value was 1. Besides, the “17 8H 5B1” value under setting [6] is recorded as 0.786. The “17 8H NS19” value under setting [7] was found to be 0.976. In addition, the “20 0H 5B1” value under setting [8] amounted to 0.724.

B5: O70475 (protein, UniProt O70475 1-493, looked up)
chain: MVEIKKICCIGAGYVGGPTCSVIAHMCPEIRVTVVDVNEARINAWNSPTLPIYEPGLKEVVESCRGKNLFFSTNIDDAIREADLVFISVNTPTKTYGMGKGRAADLKYIEACARRIVQNSNGYKIVTEKSTVPVRAAESIRRIFDANTKPNLNLQVLSNPEFLAEGTAIKDLKNPDRVLIGGDETPEGQKAVRALCAVYEHWVPKEKILTTNTWSSELSKLAANAFLAQRISSINSISALCEATGADVEEVATAIGMDQRIGNKFLKASVGFGGSCFQKDVLNLVYLCEALNLPEVARYWQQVIDMNDYQRRRFASRIIDSLFNTVTDKKIAILGFAFKKDTGDTRESSSIYISKYLMDEGAHLHIYDPKVPREQIVVDLSHPGVSADDQVSRLVTISKDPYEACDGAHALVICTEWDMFKELDYERIHKKMLKPAFIFDGRRVLDGLHSELQTIGFQIETIGKKVSSKRIPYTPGEIPKFSLQDPPNKKPKV
modifications: full-length
B5: the “17 0H NS19” value under setting [5] turned out to be 1. In addition, the “17 8H 5B1” value under setting [6] turned out to be 1.917. Under setting [7], the “17 8H NS19” value is 0.596. Also, under setting [8], the “20 0H 5B1” value turned out to be 1.929.

B6: O70310 (protein, UniProt O70310 1-496, looked up)
chain: MADESETAVKLPAPSLPLMMEGNGNGHEHCSDCENEEDNSHNRSGLSPANDTGAKKKKKKQKKKKEKGSDMESTQDQPVKMTSLPAERIQEIQKAIELFSVGQGPAKTMEEASKRSYQFWDTQPVPKLGEVVNTHGPVEPDKDNIRQEPYTLPQGFTWDALDLGDRGVLKELYTLLNENYVEDDDNMFRFDYSPEFLLWALRPPGWLPQWHCGVRVVSSRKLVGFISAIPANIHIYDTEKKMVEINFLCVHKKLRSKRVAPVLIREITRRVHLEGIFQAVYTAGVVLPKPVGTCRYWHRSLNPRKLIEVKFSHLSRNMTMQRTMKLYRLPETPKTAGLRPMEKKDIPVVHQLLSRYLKQFHLTPVMNQEEVEHWFYPQENIIDTFVVENANGEVTDFLSFYTLPSTIMNHPTHKSLKAAYSFYNVHTQTPLLDLMSDALVLAKMKGFDVFNALDLMENKTFLEKLKFGIGDGNLQYYLYNWKCPSMGAEKVGLVLQ
modifications: full-length
For the molecule B6, under setting [5], the “17 0H NS19” value is recorded as 1. For the same molecule, under setting [6], the “17 8H 5B1” value came to 2.24. The “17 8H NS19” value under setting [7] was found to be 0.643. Also, the “20 0H 5B1” value under setting [8] came out at 2.047.

B7: P20918 (protein, UniProt P20918 1-812, looked up)
chain: MDHKEVILLFLLLLKPGQGDSLDGYISTQGASLFSLTKKQLAAGGVSDCLAKCEGETDFVCRSFQYHSKEQQCVIMAENSKTSSIIRMRDVILFEKRVYLSECKTGIGNGYRGTMSRTKSGVACQKWGATFPHVPNYSPSTHPNEGLEENYCRNPDNDEQGPWCYTTDPDKRYDYCNIPECEEECMYCSGEKYEGKISKTMSGLDCQAWDSQSPHAHGYIPAKFPSKNLKMNYCRNPDGEPRPWCFTTDPTKRWEYCDIPRCTTPPPPPSPTYQCLKGRGENYRGTVSVTVSGKTCQRWSEQTPHRHNRTPENFPCKNLEENYCRNPDGETAPWCYTTDSQLRWEYCEIPSCESSASPDQSDSSVPPEEQTPVVQECYQSDGQSYRGTSSTTITGKKCQSWAAMFPHRHSKTPENFPDAGLEMNYCRNPDGDKGPWCYTTDPSVRWEYCNLKRCSETGGSVVELPTVSQEPSGPSDSETDCMYGNGKDYRGKTAVTAAGTPCQGWAAQEPHRHSIFTPQTNPRAGLEKNYCRNPDGDVNGPWCYTTNPRKLYDYCDIPLCASASSFECGKPQVEPKKCPGRVVGGCVANPHSWPWQISLRTRFTGQHFCGGTLIAPEWVLTAAHCLEKSSRPEFYKVILGAHEEYIRGLDVQEISVAKLILEPNNRDIALLKLSRPATITDKVIPACLPSPNYMVADRTICYITGWGETQGTFGAGRLKEAQLPVIENKVCNRVEYLNNRVKSTELCAGQLAGGVDSCQGDSGGPLVCFEKDKYILQGVTSWGLGCARPNKPGVYVRVSRFVDWIEREMRNN
modifications: full-length
B7: under setting [5], the “17 0H NS19” value is given as 1. Besides, the “17 8H 5B1” value under setting [6] came out at 0.903. Moreover, the “17 8H NS19” value under setting [7] worked out at 0.973. Also, the “20 0H 5B1” value under setting [8] was found to be 0.756.

B8: Q922U2 (protein, UniProt Q922U2 1-580, looked up)
chain: MSRQSSVSFRSGGSRSFSAASAITPSVSRTSFSSVSRSGGGGGGRISLGGACGAGGYGSRSLYNVGGSKRISYSSGGGSFRNQFGAGGFGFGGGAGSGFGFGGGAGSGFGFGGGAGFGGGYGGAGFPVCPPGGIQEVTVNQNLLTPLNLQIDPTIQRVRTEEREQIKTLNNKFASFIDKVRFLEQQNKVLDTKWALLQEQGTKTIKQNLDPLFEQYINNLRRQLDGVLGERGRLDSELRNMQDLVEDYKNKYEDEINKRTTAENEFVMLKKDVDAAYMNKVELEARVDALMDEINFMKMFFDAELSQMQTHVSDTSVVLSMDNNRSLDLDSIIAEVKAQYEDIANRSRTEAESWYQTKYEELQQTAGRHGDDLRNTKHEISEMNRMIQRLRSEIDNVKKQCANLQNAIAEAEQRGELALKDARNKLTELEEALQKAKQDMARLLREYQELMNTKLALDVEIATYRKLLEGEECRLSGEGVGPVNISVVTNSVSSGYGGGSSIGVGSGFGGGLGSGFAGGLGPRFTRGGGGLGLGSGLSVGGSGFSAGSSQGGMSFGSGGGSGSSVKFVSTTSSSRRSFKS
modifications: full-length
On to B8, for which the “17 0H NS19” value under setting [5] is reported as 1. Under setting [6], the “17 8H 5B1” value amounted to 0.816. Further, the “17 8H NS19” value under setting [7] is 1.206. The “20 0H 5B1” value under setting [8] came out at 1.016.

B9: Q9CQ62 (protein, UniProt Q9CQ62 1-335, looked up)
chain: MALLGRAFFAGVSRLPCDPGPQRFFSFGTKTLYQSKDAPQSKFFQPVLKPMLPPDAFQGKVAFITGGGTGLGKAMTTFLSTLGAQCVIASRNIDVLKATAEEISSKTGNKVHAIRCDVRDPDMVHNTVLELIKVAGHPDVVINNAAGNFISPSERLTPNGWKTITDIVLNGTAYVTLEIGKQLIKAQKGAAFLAITTIYAESGSGFVMPSSSAKSGVEAMNKSLAAEWGRYGMRFNIIQPGPIKTKGAFSRLDPTGRFEKEMIDRIPCGRLGTMEELANLATFLCSDYASWINGAVIRFDGGEEVFLSGEFNSLKKVTKEEWDIIEGLIRKTKGS
modifications: full-length
In the case of B9, the “17 8H 5B1” value under setting [1] was found to be 2.301. Moreover, the “17 8H NS19” value under setting [2] is 0.557. In addition, under setting [3], the “17 0H NS19” value is 1. Also, under setting [4], the “20 0H 5B1” value worked out at 1.91.
